Test results: US20220195461A1, “METHODS AND COMPOSITIONS FOR TRANSGENE EXPRESSION” (priority 2019, published 2022)
Some results were stated once for a whole list of compounds, not compound by compound.

System: air-liquid interface (ALI) human bronchial epithelial (HBE) cultures
Assay: Luciferase transduction of ALI HBE cultures by AV.TL65 reporter vector with or without augmenter (proteasome inhibitor)
Assay type: cell-based
Conditions: for transduction (luciferase activity) over AAV without a proteasome inhibitor: augmenter + AV.TL65-gLuc-mCherry, CF HBE, 4 days after infection, 10K MOI (FIG. 1A); for enhancement of luciferase expression compared to AV.TL65Luciferase-mCherry without proteasome inhibitor: augmenter combined with AV.TL65Luciferase-mCherry, ALI HBE cultures from 5 separate CF (dF508/dF508) and non-CF donors; for transduction efficiency gains: passage 0 (P0) cells

COc1cccc2c1C(=O)c1c(O)c3c(c(O)c1C2=O)C[C@@](O)(C(=O)CO)C[C@@H]3O[C@H]1C[C@H](N)[C@H](O)[C@H](C)O1 [doxorubicin]
transduction (luciferase activity) over AAV without a proteasome inhibitor: over 200 fold | enhancement of luciferase expression compared to AV.TL65Luciferase-mCherry without proteasome inhibitor: more than 600 fold | transduction efficiency gains: over 200 fold

CC(=O)[C@]1(O)Cc2c(O)c3c(c(O)c2[C@@H](O[C@H]2C[C@H](N)[C@H](O)[C@H](C)O2)C1)C(=O)c1ccccc1C3=O [idarubicin]
transduction (luciferase activity) over AAV without a proteasome inhibitor: over 200 fold | enhancement of luciferase expression compared to AV.TL65Luciferase-mCherry without proteasome inhibitor: more than 600 fold | transduction efficiency gains: over 200 fold
